Source: PMC11172389
Results are given in words; binding and its absence hold for the method and conditions named. Binding seen in cells or lysates may run through a third protein. These calls come from enrichment with a bait or labelling near it, and not all partners need be listed.

The chains behind the UniProt entries cited, without tags or fusion partners.
UniProt O70507: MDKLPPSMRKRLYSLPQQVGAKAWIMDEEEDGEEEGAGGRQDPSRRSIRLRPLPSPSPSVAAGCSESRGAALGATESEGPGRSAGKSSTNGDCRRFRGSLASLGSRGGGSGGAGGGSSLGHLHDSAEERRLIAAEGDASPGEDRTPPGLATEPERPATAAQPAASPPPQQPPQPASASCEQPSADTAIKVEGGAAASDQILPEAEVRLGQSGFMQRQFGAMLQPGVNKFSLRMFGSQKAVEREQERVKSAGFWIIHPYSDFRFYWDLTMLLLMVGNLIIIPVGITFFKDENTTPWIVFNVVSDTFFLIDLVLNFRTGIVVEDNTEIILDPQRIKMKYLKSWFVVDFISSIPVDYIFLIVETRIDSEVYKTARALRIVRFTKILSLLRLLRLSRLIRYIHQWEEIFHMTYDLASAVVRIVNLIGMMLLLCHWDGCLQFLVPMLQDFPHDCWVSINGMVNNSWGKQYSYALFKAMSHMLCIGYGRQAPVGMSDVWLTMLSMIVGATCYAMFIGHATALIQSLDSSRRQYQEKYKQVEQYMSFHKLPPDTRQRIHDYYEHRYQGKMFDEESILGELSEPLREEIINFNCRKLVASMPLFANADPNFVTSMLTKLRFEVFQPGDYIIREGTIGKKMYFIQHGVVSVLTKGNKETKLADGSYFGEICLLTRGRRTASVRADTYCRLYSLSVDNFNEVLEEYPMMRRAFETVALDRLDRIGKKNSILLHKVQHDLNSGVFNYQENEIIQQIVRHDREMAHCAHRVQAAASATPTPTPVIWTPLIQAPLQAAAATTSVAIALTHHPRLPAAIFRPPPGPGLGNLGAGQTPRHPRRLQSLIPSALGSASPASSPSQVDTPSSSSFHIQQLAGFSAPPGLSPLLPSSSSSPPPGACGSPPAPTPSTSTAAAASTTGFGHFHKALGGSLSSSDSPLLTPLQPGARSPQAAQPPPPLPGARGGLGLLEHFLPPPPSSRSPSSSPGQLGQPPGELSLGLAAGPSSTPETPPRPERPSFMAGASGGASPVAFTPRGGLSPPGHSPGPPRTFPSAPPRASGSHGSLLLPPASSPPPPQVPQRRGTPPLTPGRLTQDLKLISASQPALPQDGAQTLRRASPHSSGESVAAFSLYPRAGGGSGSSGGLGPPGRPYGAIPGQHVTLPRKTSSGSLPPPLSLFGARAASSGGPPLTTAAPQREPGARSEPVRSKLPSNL
UniProt Q99246: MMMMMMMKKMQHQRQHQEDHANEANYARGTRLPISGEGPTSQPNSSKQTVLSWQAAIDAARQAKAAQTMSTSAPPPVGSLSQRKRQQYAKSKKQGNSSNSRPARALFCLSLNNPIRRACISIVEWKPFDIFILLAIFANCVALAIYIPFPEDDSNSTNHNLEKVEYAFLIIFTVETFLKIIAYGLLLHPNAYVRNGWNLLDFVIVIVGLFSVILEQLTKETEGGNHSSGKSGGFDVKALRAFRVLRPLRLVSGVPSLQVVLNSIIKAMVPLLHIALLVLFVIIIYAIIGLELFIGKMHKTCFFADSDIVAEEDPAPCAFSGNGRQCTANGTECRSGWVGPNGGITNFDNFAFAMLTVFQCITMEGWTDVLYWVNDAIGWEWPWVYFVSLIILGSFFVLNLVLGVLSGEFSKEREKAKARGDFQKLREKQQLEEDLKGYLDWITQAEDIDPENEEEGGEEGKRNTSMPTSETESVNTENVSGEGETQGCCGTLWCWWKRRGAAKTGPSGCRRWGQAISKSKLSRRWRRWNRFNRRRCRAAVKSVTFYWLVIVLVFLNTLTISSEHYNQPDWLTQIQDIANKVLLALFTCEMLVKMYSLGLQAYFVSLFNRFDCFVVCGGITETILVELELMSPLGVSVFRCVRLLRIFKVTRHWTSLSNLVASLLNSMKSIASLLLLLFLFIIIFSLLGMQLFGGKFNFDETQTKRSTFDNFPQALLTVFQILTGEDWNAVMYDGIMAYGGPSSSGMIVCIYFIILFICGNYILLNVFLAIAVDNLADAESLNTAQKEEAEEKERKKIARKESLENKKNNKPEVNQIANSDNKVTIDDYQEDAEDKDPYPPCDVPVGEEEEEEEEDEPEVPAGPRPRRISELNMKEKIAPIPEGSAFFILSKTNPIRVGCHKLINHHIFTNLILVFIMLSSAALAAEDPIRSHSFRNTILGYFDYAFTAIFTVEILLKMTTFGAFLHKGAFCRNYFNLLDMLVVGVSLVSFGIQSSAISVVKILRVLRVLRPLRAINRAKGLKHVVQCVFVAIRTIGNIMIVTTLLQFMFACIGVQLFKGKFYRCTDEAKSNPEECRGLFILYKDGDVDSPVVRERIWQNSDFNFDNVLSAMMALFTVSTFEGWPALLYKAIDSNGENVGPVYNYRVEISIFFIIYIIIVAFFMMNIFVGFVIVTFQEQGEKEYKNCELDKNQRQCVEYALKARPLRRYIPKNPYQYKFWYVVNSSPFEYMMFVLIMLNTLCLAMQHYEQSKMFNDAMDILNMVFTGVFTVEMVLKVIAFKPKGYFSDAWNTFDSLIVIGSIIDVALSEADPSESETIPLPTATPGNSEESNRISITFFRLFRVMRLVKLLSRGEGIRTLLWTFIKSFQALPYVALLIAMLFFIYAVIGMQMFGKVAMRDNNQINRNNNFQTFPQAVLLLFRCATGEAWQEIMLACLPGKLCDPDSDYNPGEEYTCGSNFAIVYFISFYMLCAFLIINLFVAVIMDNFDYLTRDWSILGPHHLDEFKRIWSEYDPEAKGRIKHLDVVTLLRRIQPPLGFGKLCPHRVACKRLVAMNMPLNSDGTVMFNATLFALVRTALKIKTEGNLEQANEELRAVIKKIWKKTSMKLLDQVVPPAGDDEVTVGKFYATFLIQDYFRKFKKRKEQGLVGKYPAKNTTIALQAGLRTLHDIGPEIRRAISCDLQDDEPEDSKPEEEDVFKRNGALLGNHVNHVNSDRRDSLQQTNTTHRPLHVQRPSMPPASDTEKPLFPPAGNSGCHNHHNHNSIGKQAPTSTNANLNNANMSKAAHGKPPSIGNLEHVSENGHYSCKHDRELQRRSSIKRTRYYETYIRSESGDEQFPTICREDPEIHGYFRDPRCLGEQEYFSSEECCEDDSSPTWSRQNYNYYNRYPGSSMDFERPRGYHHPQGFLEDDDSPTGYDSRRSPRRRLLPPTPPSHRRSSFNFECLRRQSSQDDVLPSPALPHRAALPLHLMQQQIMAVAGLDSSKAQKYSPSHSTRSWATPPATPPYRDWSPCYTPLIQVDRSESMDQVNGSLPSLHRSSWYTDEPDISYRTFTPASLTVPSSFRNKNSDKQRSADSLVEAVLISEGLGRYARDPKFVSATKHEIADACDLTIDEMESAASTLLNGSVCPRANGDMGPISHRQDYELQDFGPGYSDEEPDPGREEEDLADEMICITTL
UniProt P58391: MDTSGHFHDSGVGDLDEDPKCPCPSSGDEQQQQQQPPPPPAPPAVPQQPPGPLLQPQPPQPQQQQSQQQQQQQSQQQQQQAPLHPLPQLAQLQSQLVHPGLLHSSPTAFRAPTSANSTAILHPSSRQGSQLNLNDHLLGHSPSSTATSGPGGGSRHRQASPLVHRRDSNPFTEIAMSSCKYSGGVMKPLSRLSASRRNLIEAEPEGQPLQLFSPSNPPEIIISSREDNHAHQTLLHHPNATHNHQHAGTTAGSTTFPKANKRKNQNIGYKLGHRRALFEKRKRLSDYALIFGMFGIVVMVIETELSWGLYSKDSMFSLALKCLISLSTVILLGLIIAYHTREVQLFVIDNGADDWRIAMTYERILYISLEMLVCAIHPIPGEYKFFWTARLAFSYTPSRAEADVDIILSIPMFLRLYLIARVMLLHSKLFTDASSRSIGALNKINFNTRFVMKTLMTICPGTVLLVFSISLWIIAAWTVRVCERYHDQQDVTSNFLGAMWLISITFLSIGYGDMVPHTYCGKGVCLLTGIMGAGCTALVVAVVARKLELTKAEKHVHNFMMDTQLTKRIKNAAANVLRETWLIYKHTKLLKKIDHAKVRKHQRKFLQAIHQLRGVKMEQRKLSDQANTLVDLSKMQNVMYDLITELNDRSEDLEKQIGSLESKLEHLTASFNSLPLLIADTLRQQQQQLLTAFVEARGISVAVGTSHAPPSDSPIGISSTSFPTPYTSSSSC

Tests used:
Assay in all cases: affinity purification with mass spectrometry; mouse midbrain plasma-membrane-enriched fraction solubilised in CL47a; antibody-coated magnetic beads (protein A Dynabeads for Cav1.3), 2 h at 4 °C; LC-MS/MS, iBAQ, Class A/B against 11 control IPs from knock-out mice
[1] = molecular target: hyperpolarization-activated cyclic nucleotide-gated channel HCN4 (mouse (endogenous in midbrain)) (UniProt O70507)
[2] = molecular target: Cav1.3 L-type voltage-dependent Ca2+ channel α1-subunit (mouse (endogenous in midbrain)) (UniProt Q99246)
[3] = molecular target: SK3 calcium-activated small-conductance potassium channel (mouse (endogenous in midbrain)) (UniProt P58391)

Measured: binding

B1: hyperpolarization-activated cyclic nucleotide-gated channel HCN2 (protein, UniProt O88703 1-863)
chain: MDARGGGGRPGDSPGTTPAPGPPPPPPPPAPPQPQPPPAPPPNPTTPSHPESADEPGPRARLCSRDSACTPGAAKGGANGECGRGEPQCSPEGPARGPKVSFSCRGAASGPSAAEEAGSEEAGPAGEPRGSQASFLQRQFGALLQPGVNKFSLRMFGSQKAVEREQERVKSAGAWIIHPYSDFRFYWDFTMLLFMVGNLIIIPVGITFFKDETTAPWIVFNVVSDTFFLMDLVLNFRTGIVIEDNTEIILDPEKIKKKYLRTWFVVDFVSSIPVDYIFLIVEKGIDSEVYKTARALRIVRFTKILSLLRLLRLSRLIRYIHQWEEIFHMTYDLASAVMRICNLISMMLLLCHWDGCLQFLVPMLQDFPSDCWVSINNMVNHSWSELYSFALFKAMSHMLCIGYGRQAPESMTDIWLTMLSMIVGATCYAMFIGHATALIQSLDSSRRQYQEKYKQVEQYMSFHKLPADFRQKIHDYYEHRYQGKMFDEDSILGELNGPLREEIVNFNCRKLVASMPLFANADPNFVTAMLTKLKFEVFQPGDYIIREGTIGKKMYFIQHGVVSVLTKGNKEMKLSDGSYFGEICLLTRGRRTASVRADTYCRLYSLSVDNFNEVLEEYPMMRRAFETVAIDRLDRIGKKNSILLHKVQHDLSSGVFNNQENAIIQEIVKYDREMVQQAELGQRVGLFPPPPPPQVTSAIATLQQAVAMSFCPQVARPLVGPLALGSPRLVRRAPPGPLPPAASPGPPAASPPAAPSSPRAPRTSPYGVPGSPATRVGPALPARRLSRASRPLSASQPSLPHGVPAPSPAASARPASSSTPRLGPAPTARTAAPSPDRRDSASPGAASGLDPLDSARSRLSSNL
binds: all assays above
